Data reported in paper PMC12644819 (Nature Communications, 2025).
These are yes or no findings as the source states them, for the method shown. Binding seen in cells or lysates may run through a third protein. These calls come from enrichment with a bait or labelling near it, and not all partners need be listed. For some assays here: Where a sequence is shown, tags or fusion partners need not be part of it.

Amino acid sequences for entries named in this document (tags omitted). Residues count along the entry.
UniProt P0ADC1, residues 19-193: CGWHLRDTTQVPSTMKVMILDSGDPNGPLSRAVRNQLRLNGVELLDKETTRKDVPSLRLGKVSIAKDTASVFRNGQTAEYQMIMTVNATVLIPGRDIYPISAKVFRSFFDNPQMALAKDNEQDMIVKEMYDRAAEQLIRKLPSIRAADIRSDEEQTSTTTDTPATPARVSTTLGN

Tests used:
[1] = target: T1, LptM^His (E. coli) (UniProt P0ADN6); assay: affinity purification with mass spectrometry; nickel-affinity chromatography and gel filtration of LptM^His (wild-type cells) or LptE^His (ΔlptM cells) from DDM-solubilised envelope; SDS-PAGE with Coomassie; ~15 kDa band identified by bottom-up mass spectrometry
T1 sequence (chain, lipoprotein; acyl tails on the N-terminal Cys): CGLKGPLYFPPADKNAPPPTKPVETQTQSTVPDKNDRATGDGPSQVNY

[2] = target: LptE^His (E. coli) (UniProt P0ADC1); assay: as above

B1: LptY (natural protein, E. coli, UniProt P31063 16-137, looked up)
chain: CAEVENYNNVVKTPAPDWLAGYWQTKGPQRALVSPEAIGSLIVTKEGDTLDCRQWQRVIAVPGKLTLMSDDLTNVTVKRELYEVERDGNTIEYDGMTMERVDRPTAECAAALDKAPLPTPLP
modifications: lipoprotein
notes: LptY (formerly YedD), E. coli OM lipoprotein of ~14 kDa; an AlphaFold2 model was docked; also called YedD; source: endogenous, E. coli BW25113; co-purified with LptDEM^His or LptDE^His (Ni-NTA, SEC)
binding [1]: binds | binding [2]: binds
